Data on five molecules can be found in article PMC4941268.

Amino acid sequences for entries named in this document (tags omitted). A change or cut given only in a name is not applied to a line headed by its entry.
UniProt P02545: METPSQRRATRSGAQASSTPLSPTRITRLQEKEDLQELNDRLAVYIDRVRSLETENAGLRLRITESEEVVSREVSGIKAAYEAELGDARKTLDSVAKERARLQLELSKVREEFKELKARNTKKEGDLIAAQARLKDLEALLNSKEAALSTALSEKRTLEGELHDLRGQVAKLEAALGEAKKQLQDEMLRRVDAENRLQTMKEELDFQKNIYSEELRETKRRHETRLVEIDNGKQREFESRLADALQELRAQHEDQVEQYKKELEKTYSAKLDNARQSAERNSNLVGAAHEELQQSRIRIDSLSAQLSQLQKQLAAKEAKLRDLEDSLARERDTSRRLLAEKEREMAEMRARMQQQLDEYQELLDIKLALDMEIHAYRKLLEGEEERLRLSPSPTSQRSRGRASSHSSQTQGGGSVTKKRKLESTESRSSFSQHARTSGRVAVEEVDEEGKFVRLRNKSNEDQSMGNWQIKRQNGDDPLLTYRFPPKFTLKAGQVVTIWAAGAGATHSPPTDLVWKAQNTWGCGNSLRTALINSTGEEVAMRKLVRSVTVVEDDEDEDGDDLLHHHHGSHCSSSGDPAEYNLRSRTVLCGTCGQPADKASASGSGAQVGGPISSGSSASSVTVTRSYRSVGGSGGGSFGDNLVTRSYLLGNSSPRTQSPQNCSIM
UniProt P45973: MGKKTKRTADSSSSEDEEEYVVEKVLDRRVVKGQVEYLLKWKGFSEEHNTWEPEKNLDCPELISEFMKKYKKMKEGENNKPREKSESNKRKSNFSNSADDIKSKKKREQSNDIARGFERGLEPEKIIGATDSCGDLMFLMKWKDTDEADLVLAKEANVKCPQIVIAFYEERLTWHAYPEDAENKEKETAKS

Assay [1] deals with FLAG-tagged prelamin A (LA-C661M) (UniProt P02545). Put plainly: co-IP; anti-FLAG immunoprecipitation from HEK293 cells cotransfected with FLAG-lamin constructs and GFP-BAF-WT, BAF-A12T or BAF-G47E; cells fixed in 1% formaldehyde 10 min at room temperature, lysed in 1% SDS, 10 mM EDTA, 50 mM Tris-HCl pH 8.0, glass beads and sonication; IP overnight at 4°C; blots for FLAG, GFP, HP1α and LAP2α.

Assay [2] deals with full length FLAG-tagged prelamin A (LA-WT) (UniProt P02545). The description is as above.
Assay [3] addresses FLAG-tagged prelamin A (LA-C661M) (UniProt P02545). Put plainly: co-IP; anti-FLAG immunoprecipitation from cotransfected HEK293 cells (FLAG-lamin A constructs with GFP-BAF constructs), 24 h after transfection; lysis in 50 mM TRIS-HCl pH 8.0, 150 mM NaCl, 1% NP40, 0.1% SDS; antibody overnight at 4°C, protein A/G; blots for FLAG and GFP.
The target in assay [4] is full length FLAG-tagged prelamin A (LA-WT) (UniProt P02545). The description is as above.

Results are given in words; binding and its absence hold for the method and conditions named. Binding seen in cells or lysates may run through a third protein. Some entries that bind do so weakly or less than the wild type. For some of these results: Where a sequence is shown, tags or fusion partners need not be part of it.

For the molecule HP1-alpha (from UniProt P45973 1-191), the binding result in assay [1] and in assay [2] was “binds” each time.

B1: GFP-tagged wild type BAF (BAF-WT) (protein, UniProt O75531 1-89)
chain: MTTSQKHRDFVAEPMGEKPVGSLAGIGEVLGKKLEERGFDKAYVVLGQFLVLKKDEDLFREWLKDTCGANAKQSRDCFGCLREWCDAFL
Regarding B1, the binding result in assay [3] and in assay [4] was “binds” in each case.

B2: GFP-tagged BAF mutant BAF-G47E (protein, UniProt O75531 1-89)
chain: MTTSQKHRDFVAEPMGEKPVGSLAGIGEVLGKKLEERGFDKAYVVLEQFLVLKKDEDLFREWLKDTCGANAKQSRDCFGCLREWCDAFL
For B2, the binding entry in assay [3] and in assay [4] was “binds weakly” each time.

B3: GFP-tagged NGPS-BAF mutant (BAF-A12T) (protein, UniProt O75531 1-89)
chain: MTTSQKHRDFVTEPMGEKPVGSLAGIGEVLGKKLEERGFDKAYVVLGQFLVLKKDEDLFREWLKDTCGANAKQSRDCFGCLREWCDAFL
Consider B3, for which the binding result in assay [3] and in assay [4] was “binds” in each case.

B4: LAP2-alpha (protein, UniProt P42166 1-694)
chain: MPEFLEDPSVLTKDKLKSELVANNVTLPAGEQRKDVYVQLYLQHLTARNRPPLPAGTNSKGPPDFSSDEEREPTPVLGSGAAAAGRSRAAVGRKATKKTDKPRQEDKDDLDVTELTNEDLLDQLVKYGVNPGPIVGTTRKLYEKKLLKLREQGTESRSSTPLPTISSSAENTRQNGSNDSDRYSDNEEGKKKEHKKVKSTRDIVPFSELGTTPSGGGFFQGISFPEISTRPPLGSTELQAAKKVHTSKGDLPREPLVATNLPGRGQLQKLASERNLFISCKSSHDRCLEKSSSSSSQPEHSAMLVSTAASPSLIKETTTGYYKDIVENICGREKSGIQPLCPERSHISDQSPLSSKRKALEESESSQLISPPLAQAIRDYVNSLLVQGGVGSLPGTSNSMPPLDVENIQKRIDQSKFQETEFLSPPRKVPRLSEKSVEERDSGSFVAFQNIPGSELMSSFAKTVVSHSLTTLGLEVAKQSQHDKIDASELSFPFHESILKVIEEEWQQVDRQLPSLACKYPVSSREATQILSVPKVDDEILGFISEATPLGGIQAASTESCNQQLDLALCRAYEAAASALQIATHTAFVAKAMQADISQAAQILSSDPSRTHQALGILSKTYDAASYICEAAFDEVKMAAHTMGNATVGRRYLWLKDCKINLASKNKLASTPFKGGTLFGGEVCKVIKKRGNKH
Take B4: the binding result in assay [1] and in assay [2] was “binds” each time.
